Experimental data published in the supplement of paper PMC4604168 (melanoma cell lines).
The other results are listed elsewhere or left out. Many values rest on one well or one pass, so single values are uncertain.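 Imaging used 1,536-well plates; nuclei positive for cleaved PARP by antibody were divided by total DNA-stained nuclei to yield the apoptosis fraction. Doses for screening kept most cells viable, and cell lines differ markedly in resting and induced cleaved-PARP levels.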

system: COLO829; test: cleaved PARP positive nuclei fraction relative to DMSO control; melanoma cells; higher = more apoptosis; settings: library dose: low library concentration; 72 h

Compound	cleaved PARP positive nuclei fraction [%]
Cc1cc(Nc2cc(N3CCN(C)CC3)nc(Sc3ccc(NC(=O)C4CC4)cc3)n2)n[nH]1 [Tozasertib] + Cc1cc(Nc2cc(N3CCN(C)CC3)nc(/C=C/c3ccccc3)n2)n[nH]1 [ENMD2076] (first compound 0.006 µM, partner dose 0.04 µM)	149
O=C(Nc1cc(C(F)(F)F)cc(C(F)(F)F)c1)c1cc(Cl)ccc1O + C[C@]1(c2nc3c(C(N)=O)cccc3[nH]2)CCCN1 [Veliparib] (first compound 0.016 µM, partner dose 1.4 µM)	160
O=C(Nc1cc(C(F)(F)F)cc(C(F)(F)F)c1)c1cc(Cl)ccc1O + Nc1ncn([C@H]2C[C@H](O)[C@@H](CO)O2)c(=O)n1 [decitabine] (first compound 0.016 µM, partner dose 0.1 µM)	167
CC[C@]1(O)C[C@H]2CN(CCc3c([nH]c4ccccc34)[C@@](C(=O)OC)(c3cc4c(cc3OC)N(C=O)[C@H]3[C@@](O)(C(=O)OC)[C@H](OC(C)=O)[C@]5(CC)C=CCN6CC[C@]43[C@@H]65)C2)C1 [vincristine] + Cn1c(Nc2ccc(C(F)(F)F)cc2)nc2cc(Oc3ccnc(-c4ncc(C(F)(F)F)[nH]4)c3)ccc21 [CHIR265] (first compound 0.0001 µM, partner dose 0.08 µM)	137
Cc1cc(Nc2cc(N3CCN(C)CC3)nc(Sc3ccc(NC(=O)C4CC4)cc3)n2)n[nH]1 [Tozasertib] + N#CC[C@H](C1CCCC1)n1cc(-c2ncnc3[nH]ccc23)cn1 [ruxolitinib] (first compound 0.006 µM, partner dose 1 µM)	92.7
